Measurements published in paper doi:10.64898/2025.12.08.692985.
No constants are given. Whether binding was seen depends on the method and setting. Some binding calls cover weakened binding; strength is not graded here.

Chains of the proteins cited; added tags and fusions are not shown. Residues count along the entry.
UniProt Q8BX09, whole entry: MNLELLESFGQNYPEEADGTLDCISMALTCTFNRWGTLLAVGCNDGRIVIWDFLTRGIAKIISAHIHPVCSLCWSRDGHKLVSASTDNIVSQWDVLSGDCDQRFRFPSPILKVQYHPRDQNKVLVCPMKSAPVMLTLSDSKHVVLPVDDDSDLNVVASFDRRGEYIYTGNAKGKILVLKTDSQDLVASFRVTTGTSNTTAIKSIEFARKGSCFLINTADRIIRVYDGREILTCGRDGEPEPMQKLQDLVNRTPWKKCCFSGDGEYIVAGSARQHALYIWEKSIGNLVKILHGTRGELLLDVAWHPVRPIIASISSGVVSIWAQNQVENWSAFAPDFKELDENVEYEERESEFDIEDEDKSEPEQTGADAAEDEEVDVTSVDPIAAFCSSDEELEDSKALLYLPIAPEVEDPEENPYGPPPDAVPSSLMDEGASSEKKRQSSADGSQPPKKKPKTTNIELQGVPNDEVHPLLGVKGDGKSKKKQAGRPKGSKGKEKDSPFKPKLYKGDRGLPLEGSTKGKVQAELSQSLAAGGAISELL
UniProt Q9CWW7, whole entry: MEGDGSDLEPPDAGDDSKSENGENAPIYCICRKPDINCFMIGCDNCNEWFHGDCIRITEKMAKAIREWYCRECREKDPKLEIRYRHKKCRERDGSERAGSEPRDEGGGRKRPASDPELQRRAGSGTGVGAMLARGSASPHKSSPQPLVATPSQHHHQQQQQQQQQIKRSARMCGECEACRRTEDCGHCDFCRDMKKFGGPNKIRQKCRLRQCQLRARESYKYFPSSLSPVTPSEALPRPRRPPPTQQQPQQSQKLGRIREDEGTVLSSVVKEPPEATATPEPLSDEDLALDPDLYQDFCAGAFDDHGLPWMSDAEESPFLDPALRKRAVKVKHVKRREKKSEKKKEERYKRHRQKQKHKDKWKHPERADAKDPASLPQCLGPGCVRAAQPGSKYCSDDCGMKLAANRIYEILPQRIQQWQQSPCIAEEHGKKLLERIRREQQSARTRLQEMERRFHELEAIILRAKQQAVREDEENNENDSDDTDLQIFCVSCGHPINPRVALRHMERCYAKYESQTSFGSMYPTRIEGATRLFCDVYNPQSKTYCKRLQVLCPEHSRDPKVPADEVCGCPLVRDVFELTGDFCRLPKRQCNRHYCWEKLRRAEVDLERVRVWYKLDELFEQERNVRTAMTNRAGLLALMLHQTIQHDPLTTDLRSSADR
UniProt Q91X20, whole entry: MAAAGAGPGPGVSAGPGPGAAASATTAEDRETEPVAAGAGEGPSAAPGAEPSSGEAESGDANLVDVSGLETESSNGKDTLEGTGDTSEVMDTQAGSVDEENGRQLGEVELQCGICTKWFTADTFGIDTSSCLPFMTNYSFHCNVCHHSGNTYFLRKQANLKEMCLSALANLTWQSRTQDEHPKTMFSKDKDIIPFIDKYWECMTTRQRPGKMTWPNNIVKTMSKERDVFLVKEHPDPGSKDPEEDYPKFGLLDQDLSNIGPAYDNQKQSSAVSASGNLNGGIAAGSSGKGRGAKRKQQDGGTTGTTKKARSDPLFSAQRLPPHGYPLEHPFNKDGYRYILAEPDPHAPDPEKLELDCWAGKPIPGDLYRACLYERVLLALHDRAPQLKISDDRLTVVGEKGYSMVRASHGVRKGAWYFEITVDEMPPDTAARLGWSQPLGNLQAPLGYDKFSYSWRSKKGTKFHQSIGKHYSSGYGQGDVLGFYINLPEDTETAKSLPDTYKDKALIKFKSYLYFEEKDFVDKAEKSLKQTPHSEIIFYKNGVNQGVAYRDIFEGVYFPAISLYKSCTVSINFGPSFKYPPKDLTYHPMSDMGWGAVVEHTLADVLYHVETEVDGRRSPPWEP
UniProt Q8CFT2, 1185-1985: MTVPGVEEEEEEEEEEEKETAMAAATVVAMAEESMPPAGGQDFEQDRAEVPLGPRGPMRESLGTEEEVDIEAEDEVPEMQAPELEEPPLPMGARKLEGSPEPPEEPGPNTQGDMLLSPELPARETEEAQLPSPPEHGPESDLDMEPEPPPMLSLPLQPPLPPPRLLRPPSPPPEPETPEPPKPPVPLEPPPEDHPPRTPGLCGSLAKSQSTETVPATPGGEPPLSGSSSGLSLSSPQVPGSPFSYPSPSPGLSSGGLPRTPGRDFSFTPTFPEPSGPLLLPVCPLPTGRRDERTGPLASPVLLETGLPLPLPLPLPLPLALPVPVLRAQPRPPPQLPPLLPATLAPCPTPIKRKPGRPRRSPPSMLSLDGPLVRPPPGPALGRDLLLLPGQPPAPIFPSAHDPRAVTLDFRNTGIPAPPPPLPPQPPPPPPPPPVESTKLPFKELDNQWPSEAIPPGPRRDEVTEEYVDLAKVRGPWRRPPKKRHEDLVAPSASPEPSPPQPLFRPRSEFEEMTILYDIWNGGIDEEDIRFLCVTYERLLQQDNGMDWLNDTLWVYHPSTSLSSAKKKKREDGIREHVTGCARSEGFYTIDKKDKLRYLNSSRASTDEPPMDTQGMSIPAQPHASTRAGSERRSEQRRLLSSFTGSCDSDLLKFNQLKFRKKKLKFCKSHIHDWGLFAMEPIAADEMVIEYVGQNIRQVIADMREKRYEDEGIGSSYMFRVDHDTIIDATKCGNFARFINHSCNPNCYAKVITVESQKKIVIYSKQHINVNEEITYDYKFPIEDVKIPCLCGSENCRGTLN

Legend:
Test in all cases: SEC
[1] = target: RBBP5 (mouse (endogenous in E14 mESCs)) (UniProt Q8BX09)
[2] = target: CFP1 (mouse (endogenous in E14 mESCs)) (UniProt Q9CWW7)
[3] = target: ASH2L (mouse (endogenous in E14 mESCs)) (UniProt Q91X20)

Measured: binding

dTAG-SET1B-C (from UniProt Q8CFT2 1185-1985)
binds: [1] | [2] | [3]
